According to patent publication US11154519B2, “Inhibitors and their uses” (MEDICAL RESEARCH COUNCIL, priority 2015, dated 2021):
These are yes or no findings as the source states them, for the method shown. Some binding calls cover weakened binding; strength is not graded here.

Sequences of proteins named here, by UniProt entry; tags and fusion partners are left off. A change or cut given only in a name is not applied to a line headed by its entry. Residues count along the entry.
UniProt P36873: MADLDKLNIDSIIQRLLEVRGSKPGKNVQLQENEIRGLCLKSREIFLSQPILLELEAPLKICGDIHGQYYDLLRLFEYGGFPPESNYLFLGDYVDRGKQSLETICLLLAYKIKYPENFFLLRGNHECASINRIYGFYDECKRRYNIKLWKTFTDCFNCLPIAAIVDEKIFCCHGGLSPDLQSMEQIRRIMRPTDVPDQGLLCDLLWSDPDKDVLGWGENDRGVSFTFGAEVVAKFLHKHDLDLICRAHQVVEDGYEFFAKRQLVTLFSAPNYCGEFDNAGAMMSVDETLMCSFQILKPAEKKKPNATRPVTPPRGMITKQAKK
UniProt Q5SWA1, residues 340-698: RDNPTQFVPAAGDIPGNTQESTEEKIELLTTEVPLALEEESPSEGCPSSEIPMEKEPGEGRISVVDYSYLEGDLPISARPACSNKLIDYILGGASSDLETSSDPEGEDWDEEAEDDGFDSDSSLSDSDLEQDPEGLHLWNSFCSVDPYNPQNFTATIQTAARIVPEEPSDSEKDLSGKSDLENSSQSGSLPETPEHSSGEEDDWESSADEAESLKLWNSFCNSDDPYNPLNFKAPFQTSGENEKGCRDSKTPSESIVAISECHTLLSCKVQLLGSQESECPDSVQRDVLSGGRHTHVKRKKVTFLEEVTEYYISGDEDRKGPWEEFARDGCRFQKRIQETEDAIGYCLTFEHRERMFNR

Legend:
[1] = molecular target: biotinylated BAP-tagged human PP1γ (human) (UniProt P36873); assay: SPR, BAP-PP1γ on SA chip, 10 µM PPP1R15A/B injected for 80 s
[2] = molecular target: biotinylated BAP-tagged human PP1γ (human) (UniProt P36873); assay: SPR (Biacore T200), biotin-PP1 on SA chip, regulatory subunit injected
[3] = molecular target: biotinylated BAP-tagged human PP1γ (human) (UniProt P36873); assay: SPR (Biacore T200), bio-PP1c on SA chip, regulatory subunit injected, 10° C.

Measured: binding

MBP-R15B^340-698-His (from UniProt Q5SWA1 340-698)
binds: all assays above
